Measured values taken from paper PMC11564821.
No constants are given. Whether binding was seen depends on the method and setting. In cells and extracts the contact can be indirect. Tags and fused reporters may be left off the sequences shown. Values belong to the molecule of their own block, whether it stands above or below them.

Experiments:
Myc-MDM4 = biological target: T1, Myc-MDM4 (UniProt O15151); assay: co-IP; Myc-tagged MDM4 or Flag-tagged GPX4 immunoprecipitated, the other detected by immunoblot (Fig. 6A, B); cell line not stated; lysate supernatant with beads at 4 °C overnight, five washes with lysis buffer
T1 sequence: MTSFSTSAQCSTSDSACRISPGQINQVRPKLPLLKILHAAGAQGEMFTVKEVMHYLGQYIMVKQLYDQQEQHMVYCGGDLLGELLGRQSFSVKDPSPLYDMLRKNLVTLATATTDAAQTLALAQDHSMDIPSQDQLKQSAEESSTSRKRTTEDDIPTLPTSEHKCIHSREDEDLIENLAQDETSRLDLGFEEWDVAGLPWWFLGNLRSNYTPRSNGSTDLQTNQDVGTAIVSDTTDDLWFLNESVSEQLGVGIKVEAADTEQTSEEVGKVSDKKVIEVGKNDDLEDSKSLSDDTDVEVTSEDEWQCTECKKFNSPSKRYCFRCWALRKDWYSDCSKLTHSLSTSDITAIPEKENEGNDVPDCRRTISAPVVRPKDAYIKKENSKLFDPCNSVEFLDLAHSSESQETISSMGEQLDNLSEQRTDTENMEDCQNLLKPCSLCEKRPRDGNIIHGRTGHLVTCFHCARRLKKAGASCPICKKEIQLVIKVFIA

Flag-GPX4 = assay: as above

binding (Myc-MDM4): no binding
Molecule: Flag-GPX4

binding (Flag-GPX4): no binding
B1: Myc-MDM4 (protein, UniProt O15151 1-490)
chain: T1 sequence
